Assay: Parallel artificial membrane permeability assay (PAMPA)
Format: in vitro ADME
Conditions: pH 7.4, read-out: PAMPA Pe
Description: Immediately, at time zero, then at 3, 6, 9, 15 and 30 min an aliquot (50 μL) of the incubation mixture was removed and mixed with acetonitrile (100 μL) to stop the reaction. Internal standard was added to all samples, the samples centrifuged to sediment precipitated protein and the plates then sealed prior to UPLC-MS/MS analysis using a Quattro Premier XE (Waters Corporation, USA). XLfit (IDBS, UK) was used to calculate the exponential decay and consequently the rate constant (k) from the ratio of peak area of test compound to internal standard at each timepoint. The rate of intrinsic clearance (CLi) of each test compound was then calculated using the following calculation: CLi (mL/min/g liver) = k x V x Microsomal protein yield Where V (mL/mg protein) is the incubation volume/mg protein added and microsomal protein yield is […] Verapamil (0.5 μM) was used as a positive control to confirm acceptable assay performance. Experiments were performed using a single time-course experiment. […] All samples were analysed by UPLC-MS/MS on a Quattro Premier XE Mass Spectrometer (Waters Corporation, USA). The unbound fraction was determined as the ratio of the peak area in buffer to that in plasma. […] The effective permeability, Pe, of the compound was measured at […] […] Pe was calculated as shown in the below equation: […]

Papp at 5 h, 10 µM: 0.07 ×10⁻⁶ cm/s
SMILES: CC(C)NCC(O)COc1ccc(CC(N)=O)cc1 (stereo not shown) [atenolol, reference compound]
